Values quoted from earlier work in patent US12133849B2, “Method for treating cancer using a BCL-2 inhibitor in conjunction with an alpha- emitting radioimmunotherapeutic” (Actinium Pharmaceuticals, Inc., priority 2017, dated 2024).
At least one compound was matched to its structure with a doubt left.

Tests used:
Rec-1 = conditions: Rec-1-bearing mice; p=0.12
U2932 xenograft = U2932 xenograft model; PRIT 800 μCi
[1] = one venetoclax trial

## CC1(C)CCC(CN2CCN(c3ccc(C(=O)NS(=O)(=O)c4ccc(NCC5CCOCC5)c([N+](=O)[O-])c4)c(Oc4cnc5[nH]ccc5c4)c3)CC2)=C(c2ccc(Cl)cc2)C1 [venetoclax]
Rec-1
  effect on survival (in words): no effect
U2932 xenograft
  survival time compared to controls (in words): doubled
[1]
  patients with some level of response to venetoclax: 79.4%
[1]; patients
  complete response rate (including complete responses with incomplete marrow recovery): 7.5%
